Assay results published in PubChem BioAssay AID2685 (National Center for Advancing Translational Sciences (NCATS), 2010).
In all, about 320,000 compounds went through this assay and about 2,100 (0.66%) were called active. Inconclusive means that the source gave no clear call. Such entries were picked first, then a sample of the others. The call rests on the fitted dose curve; in most records, active means well fitted inhibition curve with a large enough effect in the signal ratio, with a control signal flat (not every such curve was filed as active); inconclusive means small, poorly fitted or top-dose-only effect, or effect the other way, or a change in a side signal; inactive means flat fitted curve, though single readings scatter; the % refers to the signal ratio. A potency beside an inconclusive call is a rough fit, not a confirmed value.

Test: qHTS Assay for Lipid Storage Modulators in Drosophila S3 Cells
Conditions: BODIPY lipid droplet fluorescence, 18-24 h, cells fed with added oleic acid; lipid storage change, negative = inhibition: at 46.1 µM (top of the series) unless noted
Procedure, shortened: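 Drosophila S3 cells got compounds at several concentrations plus oleic acid (400 uM solution). Laser-scanning cytometry with 488 nm excitation read lipid droplets at 500-530 nm and cells at 575-640 nm. Percent activity was relative to 20 uM Triacsin C.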
On the % scale 0 is the no-effect control and ±100 the full control effect; potency means the concentration at half of the fitted maximal effect.

Row | Compound | lipid storage change, negative = inhibition | Potency
1 | COc1ccc(CCn2c(C)cc(C(=O)CN3C(=O)C(=O)N(Cc4ccco4)C3=O)c2C)cc1 | inconclusive: 18% | –
2 | Cc1nn2c(NCc3ccccn3)c3c(nc2c1-c1ccccc1)CCC3 | inconclusive: 2.46% | –
3 | CC(=O)Nc1ccc2c(c1)nc1n2CCSC1 | inconclusive: -41.7% | –
4 | Cc1ccc(C)c(NC(=O)NC2CCCCCCC2)c1 | – | inconclusive: 1.46 µM [activator, partial curve]
5 | CC1(c2ccc3c(c2)OCO3)NC(=O)N(CC(=O)Nc2ccccc2[N+](=O)[O-])C1=O (stereo unspecified) | inconclusive: -22.1% | –
6 | CCCN(C(=O)CCl)C1=CCCCC1 | inconclusive: 1.74% | –
7 | CC(C)(C)c1ccc(N2C(=O)Cc3c2nc(N)c(C#N)c3N)cc1 | – | inconclusive: 0.326 µM [activator, partial curve]
8 | O=C(NNC(=S)NC(=O)c1cn(-c2ccccc2)nc1-c1ccccc1)c1ccncc1 | inconclusive: -11.9% | –
9 | COc1ccc2[nH]c(=O)c(CN(C(=O)c3cccnc3)c3ccc(C)cc3)cc2c1 | – | inconclusive: 10.3 µM [falling, partial curve, poor fit]
10 | CC(C)C(NC(=O)c1ccccc1F)C(=O)NCc1ccc(S(=O)(=O)N2CCOCC2)cc1 (stereo unspecified) | inconclusive | –
11 | CC(C)(C)c1ccc(C(=O)NC(=S)N2CCOCC2)cc1 | inactive | –
12 | Cc1ccccc1-n1nnnc1SCC(=O)c1c(N)n(C)c(=O)n(C)c1=O | inconclusive: 3.88% | –
13 | CC(CN1CCCCC1)OC(=O)c1ccc2c(c1)OCCO2 (stereo unspecified) | – | inconclusive: 4.11 µM [falling, single point]
14 | O=C(Nc1cccnc1)c1scc2c1OCCO2 | inconclusive: 2.19% | –
15 | COc1cc2c3c(c1)C1(C(=O)N3C(C)(C)C=C2C)C(C#N)=C(N)Oc2cc(C)oc(=O)c21 (stereo unspecified) | – | inconclusive: 5.17 µM [activator, single point]
16 | CC(C)(C)OC(=O)N[C@@H](Cc1ccccc1)C(=O)N[C@@H](CO)[C@H](O)[C@@H]1C[C@@H]1C(=O)NC1CC1 | inconclusive: 37.8% | –
17 | CC(=O)Nc1nc(C)c(-c2nc3ccc([N+](=O)[O-])cc3[nH]2)s1 | inconclusive: 20.4% | –
18 | CC1Cc2nc(SCC(=O)N3CCN(c4ccccc4)CC3)n(C)c(=O)c2S1 (stereo unspecified) | inconclusive: -7.85% | –
19 | NC(=S)N/N=C/c1ccccc1OC(=O)c1cc2ccccc2oc1=O | – | inconclusive: 18.4 µM [falling, single point]
20 | Cc1ccc(NC(=O)c2ccc(Cl)c(NC(=O)c3cccs3)c2)cc1 | – | active: 25.9 µM
21 | COc1ccccc1C1c2ccc3ccccc3c2Oc2ncn(CCN(C)C)c(=N)c21 (stereo unspecified) | – | inconclusive: 3.66 µM [falling, single point]
22 | Cc1cc(O)c(C=Nc2ccc(N3CCOCC3)cc2)c(C)c1Cl | inconclusive: 16.5% | –
23 | COc1ccc(NC(=O)CCc2nnc3ccc(N4CCC5(CC4)OCCO5)nn23)cc1 | inconclusive: -19.3% | –
24 | O=C(Cn1cc(C(=O)C2CC2)c2ccccc21)Nc1ccccc1Cl | inconclusive: 239% | –
25 | Cc1nn(Cc2ccccc2Cl)c(C)c1NC(=O)CCCn1nc(C)c([N+](=O)[O-])c1C | inactive | –
26 | N#Cc1c(N2C(=O)Nc3ccccc3N2O)sc2c1CCCCCC2 | inconclusive: -69.8% | –

Record cards, from the list above:
`Cc1cc(O)c(C=Nc2ccc(N3CCOCC3)cc2)c(C)c1Cl` reads lipid storage change, negative = inhibition: inconclusive: 16.5%
`NC(=S)N/N=C/c1ccccc1OC(=O)c1cc2ccccc2oc1=O` reads Potency: inconclusive: 18.4 µM [falling, single point]
`CC(C)(C)OC(=O)N[C@@H](Cc1ccccc1)C(=O)N[C@@H](CO)[C@H](O)[C@@H]1C[C@@H]1C(=O)NC1CC1` reads lipid storage change, negative = inhibition: inconclusive: 37.8%
`CC(C)(C)c1ccc(N2C(=O)Cc3c2nc(N)c(C#N)c3N)cc1` reads Potency: inconclusive: 0.326 µM [activator, partial curve]

The listing continues.

Row | Compound | lipid storage change, negative = inhibition | Potency
27 | CCc1cc(CNC(=O)c2cc(COc3ccc(C)nc3)on2)on1 | inconclusive: 59.2% | –
28 | COC(=O)c1c(NC(=O)COC(=O)CNC(=O)c2ccco2)sc(C)c1C | inconclusive: 19.7% | –
29 | Cc1ccc(NC(=O)COc2ccc(C3SCCS3)cc2)cc1 | – | inconclusive: 32.6 µM [activator, single point]
30 | COn1c(SC2CCCCC2)nc2ccccc2c1=O | inconclusive: 9.85% | –
31 | COc1ccc(C2c3[nH]c4ccccc4c3C[C@H]3C(=O)N(CC(C)C)CC(=O)N23)c(OC)c1 (stereo partly specified) | inconclusive: -2.71% | –
32 | CCOC(=O)CSc1ncc(-c2cccc(Cl)c2)cn1 | inconclusive: 8.15% | –
33 | O=C(CN1C(=O)/C(=C/c2ccccc2F)Oc2ccccc21)N1CCN(c2ccccn2)CC1 | – | inconclusive: 2.06 µM [activator, partial curve, poor fit]
34 | Cc1ccc(NC(=O)c2cnccn2)cc1S(=O)(=O)N(C)C | – | inconclusive: 16.4 µM [activator, partial curve, poor fit]
35 | CN(Cc1ccccc1)c1ccc(C(=O)O)cc1[N+](=O)[O-] | inconclusive: 19.1% | –
36 | COc1ccccc1NC(=O)Nc1ccc(N2CCOCC2)cc1 | inconclusive: 12.1% | –
37 | Cc1nc2oc3ccccc3c(=O)c2cc1C(=O)O | inconclusive: -1.06% | –
38 | Cc1ccc(OCCCC(=O)N2CCOCC2)c(C)c1 | inconclusive: -25.7% | –
39 | Cc1c(CCC(=O)O)c(=O)oc2cc(OCc3cccc(Cl)c3)ccc12 | inconclusive: 0.0762% | –
40 | COc1ccc(C2CC(=O)C=C(NNS(=O)(=O)c3ccc(C)cc3)C2)cc1 (stereo unspecified) | inconclusive: 12.9% | –
41 | Cc1ccc2[nH]c3nc(N/N=C/c4cccc(O)c4)nnc3c2c1 | inconclusive: -48.6% | –
42 | CCc1nn(CC(=O)NCCN2CCOCC2)c(=O)c2cc3c(OC)cccc3n12 | inconclusive: 39.6% | –
43 | O=C(COc1ncnc2ccccc12)c1ccc(Cl)cc1 | inconclusive: 0.435% | –
44 | COc1ccc(CN2CCCC(C(=O)c3cccc(OC(C)C)c3)C2)cc1Cn1cccn1 (stereo unspecified) | inconclusive: 5.53% | –
45 | CSc1ccc(C2CC(=O)Nc3c2c(=O)n(C)c(=O)n3C)cc1 (stereo unspecified) | inconclusive: -5.41% | –
46 | N=C1/C(=C/c2cccn2-c2ccc([N+](=O)[O-])cc2)C(=O)N=C2SC=CN12 | inconclusive: 1.66% | –
47 | COc1ccc(CNC(=O)CCNC(=O)N2CCn3c2nc2ccccc23)cc1 | inconclusive: -2.22% | –
48 | CCc1nc2ccccc2c(C(=O)OC2CCCCC2=O)c1C (stereo unspecified) | inconclusive: -9.52% | –
49 | COc1ccc(/C=N/n2c(-c3cccs3)n[nH]c2=S)cc1 | – | inconclusive: 0.517 µM [activator, full curve, poor fit]
50 | c1csc(CNc2ncnc3ccc(-c4ccc5c(c4)OCO5)cc23)c1 | inconclusive: 34.5% | –
51 | O=Cc1cnc(N2CCN(Cc3ccccc3)CC2)s1 | inconclusive: 12% | –
52 | O=C(NCc1ccccc1F)C1CCCN1S(=O)(=O)c1ccc(Cl)cc1 (stereo unspecified) | – | inconclusive: 16.4 µM [falling, single point]

Row | Compound | lipid storage change, negative = inhibition | Potency
53 | COc1ccc(OC)c(C(=O)c2ccc(C(=O)c3cc(OC)ccc3OC)cc2)c1 | – | inconclusive: 5.17 µM [rising, full curve]
54 | Cc1nnc(N/N=C/c2cccc(OCc3ccc(Cl)c(Cl)c3)c2)n1N | inconclusive: -66.3% | –
55 | CN(C)/C=C(\C=O)c1onc(-c2ccccc2Cl)c1C#N | – | inconclusive: 0.0046 µM [falling, full curve, poor fit]
56 | O=C(CCS(=O)(=O)c1ccccc1)Nc1ccc(N2CCOCC2)cc1 | inconclusive: 2.18% | –
57 | CCn1c2ccccc2c2cc(C3C(C#N)=C(N)Oc4n[nH]c(COC)c43)ccc21 (stereo unspecified) | – | inconclusive: 2.31 µM [activator, full curve]
58 | O=C(Cn1nc(-c2ccccc2)c2ccccc2c1=O)NCCN1CCOCC1 | inconclusive: -31.7% | –
59 | COCCNC(=O)c1ccccc1NC(=O)c1cccc([N+](=O)[O-])c1C | inconclusive: 39.2% | –
60 | CC1(C)C2CCC1(C)C(OC(=O)CSc1nc(N)cc(=O)[nH]1)C2 (stereo unspecified) | – | inconclusive: 0.103 µM [falling, full curve]
61 | O=C(NCCCNC(=O)c1ccccn1)c1cccc(F)c1 | inconclusive: 153% | –
62 | Clc1ccccc1OCCCCn1ccnc1 | inconclusive: 45.4% | –
63 | N#Cc1cc(Oc2cccc3cccnc23)c(-n2nnc3ccccc32)cc1C#N | inconclusive: -13.8% | –
64 | O=C(O)CCC(=O)N1CCc2cc(S(=O)(=O)N3CCCCC3)ccc21 | – | inconclusive: 29.1 µM [falling, single point]
65 | CC(NC(=O)COC(=O)/C=C/c1ccc([N+](=O)[O-])cc1)c1ccccc1 (stereo unspecified) | – | inconclusive: 1.16 µM [falling, full curve]
66 | Cc1ccccc1-c1nc(CS(=O)CC(=O)NCc2ccc3c(c2)OCO3)c(C)o1 (stereo unspecified) | inconclusive: 8.88% | –
67 | Cc1cccc(NC(=O)c2ccc(NC(=O)c3ccccc3Br)cc2)c1 | – | inconclusive: 13 µM [falling, single point]
68 | O=C(CSc1nnnn1-c1cccc(F)c1)NC1CCCCC1 | inconclusive: 0.0645% | –
69 | COc1ccc(N(CC(=O)N/N=C(\C)c2cccs2)S(=O)(=O)c2ccccc2)cc1Cl | inconclusive: 12.5% | –
70 | COC(=O)c1[nH]c2ccccc2c1Sc1ccccc1 | inconclusive: -80.3% | –
71 | CCCOc1ccc(N2C(=O)CC(N(CCc3ccc(OC)c(OC)c3)C(=S)Nc3ccccc3)C2=O)cc1 (stereo unspecified) | – | inconclusive: 13 µM [falling, partial curve, poor fit]
72 | O=C(NCC1CCCO1)c1ccc(COCC(F)(F)C(F)F)cc1 (stereo unspecified) | inconclusive: 23.8% | –
73 | N#CC1=C(N)Oc2c(O)cc3ccccc3c2C1c1ccsc1 (stereo unspecified) | – | inconclusive: 29.1 µM [cytotoxic, single point]
74 | COCCNC(=S)N1CCc2cc(OC)c(OC)cc2C1COc1cc(C)cc(C)c1 (stereo unspecified) | – | inconclusive: 2.59 µM [falling, partial curve, poor fit]
75 | Cc1ccc2c(c1)[nH]c1c(N3CCN(Cc4ccccc4)CC3)ncnc12 | – | inconclusive: 6.51 µM [falling, single point]
76 | CCOC(=O)NC(=O)c1cn(Nc2ccccc2C(F)(F)F)c(=O)[nH]c1=O | inconclusive: 38.8% | –

A portion from further up:
Row | Compound | lipid storage change, negative = inhibition | Potency
62 | Clc1ccccc1OCCCCn1ccnc1 | inconclusive: 45.4% | –
63 | N#Cc1cc(Oc2cccc3cccnc23)c(-n2nnc3ccccc32)cc1C#N | inconclusive: -13.8% | –
